Laboratory results: publication doi:10.1101/2020.11.29.402537
No constants are given. Whether binding was seen depends on the method and setting. For some of these results: In cells and extracts the contact can be indirect. Some results given as binding are weak or reduced against the parent protein; the word gives no strength. Where a sequence is shown, tags or fusion partners need not be part of it.

By UniProt entry, the sequences of proteins in these tests, tags left out.
UniProt P53350: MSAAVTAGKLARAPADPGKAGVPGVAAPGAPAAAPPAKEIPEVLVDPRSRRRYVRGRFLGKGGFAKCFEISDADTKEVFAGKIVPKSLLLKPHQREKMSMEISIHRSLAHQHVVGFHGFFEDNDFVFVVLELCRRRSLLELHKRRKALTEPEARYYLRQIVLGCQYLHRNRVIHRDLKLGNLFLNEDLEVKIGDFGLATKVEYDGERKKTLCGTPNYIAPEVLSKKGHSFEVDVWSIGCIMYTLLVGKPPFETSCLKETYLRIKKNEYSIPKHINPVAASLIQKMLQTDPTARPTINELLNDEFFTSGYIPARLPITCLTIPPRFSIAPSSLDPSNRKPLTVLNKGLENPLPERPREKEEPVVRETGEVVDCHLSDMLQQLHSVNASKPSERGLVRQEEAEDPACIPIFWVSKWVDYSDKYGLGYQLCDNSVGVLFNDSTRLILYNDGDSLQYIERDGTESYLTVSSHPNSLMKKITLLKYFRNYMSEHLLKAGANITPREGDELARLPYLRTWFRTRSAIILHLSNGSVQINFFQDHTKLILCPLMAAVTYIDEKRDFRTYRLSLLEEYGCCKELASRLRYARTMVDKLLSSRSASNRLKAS

T1: EGFP-hMeikin N-terminal Separase cleavage fragment (N-Meikin; amino acids 1-154) (human)
T1 sequence: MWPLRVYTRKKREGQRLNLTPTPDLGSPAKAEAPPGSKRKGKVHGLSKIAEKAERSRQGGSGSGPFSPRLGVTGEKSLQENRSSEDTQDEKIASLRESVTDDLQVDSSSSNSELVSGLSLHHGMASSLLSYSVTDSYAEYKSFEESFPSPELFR

T2: EGFP-hMeikin C-terminal Separase cleavage fragment (C-Meikin; amino acids 155-373) (human)
T2 sequence: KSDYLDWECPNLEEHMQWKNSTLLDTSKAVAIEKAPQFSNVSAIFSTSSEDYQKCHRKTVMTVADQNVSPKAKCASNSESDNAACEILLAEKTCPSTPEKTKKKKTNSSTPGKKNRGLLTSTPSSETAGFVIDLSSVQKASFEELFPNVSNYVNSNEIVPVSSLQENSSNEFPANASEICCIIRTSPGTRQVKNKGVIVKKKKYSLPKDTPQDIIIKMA

T3: EGFP-hMeikin C-terminal kinetochore targeting domain (amino acids 328-373) (human)
T3 sequence: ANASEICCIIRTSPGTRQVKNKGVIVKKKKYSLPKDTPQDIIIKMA

T4: H2B-mScarlet-tagged N-terminal Meikin fragment of the cleavage sensor (after Separase cleavage) (human)
T4 sequence: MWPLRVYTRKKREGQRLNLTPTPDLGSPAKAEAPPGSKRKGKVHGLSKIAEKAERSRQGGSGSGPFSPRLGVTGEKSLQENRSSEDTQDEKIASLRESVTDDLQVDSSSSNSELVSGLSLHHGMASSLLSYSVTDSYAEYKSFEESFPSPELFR


Experiments:
[1] = molecular target: T1, EGFP-hMeikin N-terminal Separase cleavage fragment (N-Meikin; amino acids 1-154) (human); test: co-IP
[2] = molecular target: T2, EGFP-hMeikin C-terminal Separase cleavage fragment (C-Meikin; amino acids 155-373) (human); test: co-IP
[3] = molecular target: T3, EGFP-hMeikin C-terminal kinetochore targeting domain (amino acids 328-373) (human); test: co-IP
[4] = molecular target: T4, H2B-mScarlet-tagged N-terminal Meikin fragment of the cleavage sensor (after Separase cleavage) (human); test: dual-color H2B-cleavage sensor, live-cell imaging

| Molecule | binding [1] | binding [2] | binding [3] | binding [4] |
| --- | --- | --- | --- | --- |
| Polo-like kinase 1 (Plk1) (from UniProt P53350 1-603) (enzyme) | no binding | binds | no binding | – |
| mNeonGreen-tagged C-terminal Meikin fragment of the cleavage sensor (after Separase cleavage) (domain or fragment, UniProt A0A087WXM9 155-332) KSDYLDWECPNLEEHMQWKNSTLLDTSKAVAIEKAPQFSNVSAIFSTSSEDYQKCHRKTVMTVADQNVSPKAKCASNSESDNAACEILLAEKTCPSTPEKTKKKKTNSSTPGKKNRGLLTSTPSSETAGFVIDLSSVQKASFEELFPNVSNYVNSNEIVPVSSLQENSSNEFPANASE | – | – | – | no binding |
